Record: PubChem BioAssay AID652272 (Drosophila RNAi Screening Center, 2013)
The screen tested about 21,000 reagents; shown is a random part of those with a known target gene and a result. In the full data, 503 (2.4%) got an active call. 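Raw plate light values, not normalised; calls rest on replicate z-scores that were not deposited; hits include reporter decreases as well as increases.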 A number with no mark means an inactive call. A plus sign joins genes that one reagent is predicted to hit. Not stated in the record: the amount of reagent, the time to read-out.

Test: 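Finding fly genes that regulate Hedgehog signal transduction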 (primary screen)
System: Drosophila clone 8 (Cl8) cells
Knock-down reagent: long dsRNA against Drosophila genes
Measured: 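Plate reader light from a firefly reporter under a ptc promoter fragment that responds to Hedgehog, with Renilla light as transfection reference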
Reading the numbers: firefly Hh reporter signal: higher = more ptc reporter light; Renilla reference signal: higher = more Renilla control light
Active means: 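Called a hit if the two-replicate mean z-score lies below -2 or above +3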
Meaning of the calls: active = hit: reporter lowered or raised; inactive = not a hit

CG30053 [DRSC07260]: firefly Hh reporter signal, replicate 1 = 80827 (active); firefly Hh reporter signal, replicate 2 = 77493; Renilla reference signal, replicate 1 = 1349; Renilla reference signal, replicate 2 = 3130
CG1544 [DRSC15036]: firefly Hh reporter signal, replicate 1 = 78008; firefly Hh reporter signal, replicate 2 = 94518; Renilla reference signal, replicate 1 = 1376; Renilla reference signal, replicate 2 = 3142
CG15743 [DRSC19709]: firefly Hh reporter signal, replicate 1 = 86667; firefly Hh reporter signal, replicate 2 = 2.06e5; Renilla reference signal, replicate 1 = 2219; Renilla reference signal, replicate 2 = 7296
fabp + sea [DRSC16114]: firefly Hh reporter signal, replicate 1 = 1.04e5; firefly Hh reporter signal, replicate 2 = 1.04e5; Renilla reference signal, replicate 1 = 4081; Renilla reference signal, replicate 2 = 3826
fabp + sea [DRSC16115]: firefly Hh reporter signal, replicate 1 = 1.26e5; firefly Hh reporter signal, replicate 2 = 1.42e5; Renilla reference signal, replicate 1 = 5297; Renilla reference signal, replicate 2 = 5274
CG13339 [DRSC06373]: firefly Hh reporter signal, replicate 1 = 65485; firefly Hh reporter signal, replicate 2 = 62492; Renilla reference signal, replicate 1 = 1584; Renilla reference signal, replicate 2 = 4374
nopo (no poles) [DRSC06918]: firefly Hh reporter signal, replicate 1 = 98667; firefly Hh reporter signal, replicate 2 = 53404; Renilla reference signal, replicate 1 = 4790; Renilla reference signal, replicate 2 = 2208
CG7968 [DRSC01903]: firefly Hh reporter signal, replicate 1 = 1.22e5; firefly Hh reporter signal, replicate 2 = 61482; Renilla reference signal, replicate 1 = 3418; Renilla reference signal, replicate 2 = 5601
Poxn (Pox neuro) [DRSC05589]: firefly Hh reporter signal, replicate 1 = 1.46e5; firefly Hh reporter signal, replicate 2 = 3.81e5; Renilla reference signal, replicate 1 = 3917; Renilla reference signal, replicate 2 = 15891
Poxn (Pox neuro) [DRSC07512]: firefly Hh reporter signal, replicate 1 = 78273; firefly Hh reporter signal, replicate 2 = 68064; Renilla reference signal, replicate 1 = 779; Renilla reference signal, replicate 2 = 4369
PSMG1 (Proteasome assembly chaperone 1) [DRSC12297]: firefly Hh reporter signal, replicate 1 = 1.06e5; firefly Hh reporter signal, replicate 2 = 62048; Renilla reference signal, replicate 1 = 4277; Renilla reference signal, replicate 2 = 2817

Active calls (from the list above):
CG30053 [DRSC07260]: firefly Hh reporter signal, replicate 1 = 80827 (active); firefly Hh reporter signal, replicate 2 = 77493; Renilla reference signal, replicate 1 = 1349; Renilla reference signal, replicate 2 = 3130

The list goes on.
trv (trivet) [DRSC13846]: firefly Hh reporter signal, replicate 1 = 49307; firefly Hh reporter signal, replicate 2 = 2.75e5; Renilla reference signal, replicate 1 = 14089; Renilla reference signal, replicate 2 = 5525
trv (trivet) [DRSC14559]: firefly Hh reporter signal, replicate 1 = 1.28e5; firefly Hh reporter signal, replicate 2 = 72528; Renilla reference signal, replicate 1 = 4513; Renilla reference signal, replicate 2 = 2301
trv (trivet) [DRSC14560]: firefly Hh reporter signal, replicate 1 = 1.44e5; firefly Hh reporter signal, replicate 2 = 1.13e5; Renilla reference signal, replicate 1 = 4804; Renilla reference signal, replicate 2 = 3235
trv (trivet) [DRSC14561]: firefly Hh reporter signal, replicate 1 = 2.07e5; firefly Hh reporter signal, replicate 2 = 1.67e5; Renilla reference signal, replicate 1 = 6728; Renilla reference signal, replicate 2 = 4154
shf (shifted) [DRSC18283]: firefly Hh reporter signal, replicate 1 = 69591; firefly Hh reporter signal, replicate 2 = 2.14e5; Renilla reference signal, replicate 1 = 2509; Renilla reference signal, replicate 2 = 7520
CG7156 [DRSC16207]: firefly Hh reporter signal, replicate 1 = 1.29e5; firefly Hh reporter signal, replicate 2 = 71853; Renilla reference signal, replicate 1 = 5079; Renilla reference signal, replicate 2 = 3196
CG43103 [DRSC05643]: firefly Hh reporter signal, replicate 1 = 1.33e5; firefly Hh reporter signal, replicate 2 = 2.67e5; Renilla reference signal, replicate 1 = 4045; Renilla reference signal, replicate 2 = 12279
CG1894 [DRSC15396]: firefly Hh reporter signal, replicate 1 = 86659; firefly Hh reporter signal, replicate 2 = 1.01e5; Renilla reference signal, replicate 1 = 3072; Renilla reference signal, replicate 2 = 3844
mi (minus) [DRSC04498]: firefly Hh reporter signal, replicate 1 = 29993 (active); firefly Hh reporter signal, replicate 2 = 20546; Renilla reference signal, replicate 1 = 1736; Renilla reference signal, replicate 2 = 1319
Ugt36A1 (UDP-glycosyltransferase family 36 member A1) [DRSC00748]: firefly Hh reporter signal, replicate 1 = 1.97e5; firefly Hh reporter signal, replicate 2 = 79091; Renilla reference signal, replicate 1 = 5050; Renilla reference signal, replicate 2 = 8194
